Results deposited as PubChem BioAssay AID1224830 (NIAID, 2016).

- Purpose: 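Genes whose knock-down alters the TNF-alpha reporter response to LPS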 (primary screen)
- Cells: human THP-1 monocytic leukaemia cells, TNF dual-luciferase reporter clone, PMA-differentiated to macrophage-like cells
- Knock-down reagent: siRNA pool against human genes, 50 nM
- Timing: LPS for 4 h, given about 3 days after siRNA transfection
- Treatment: bacterial LPS (TLR4 ligand), 10 ng/ml
- Read-out: 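TNF firefly reporter luminescence divided by renilla, normalised to the plate median, then turned into a robust z-score for each replicate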
- Direction: TNF reporter robust z-score: higher = stronger TNF reporter response to LPS
- Hit rule: 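Each well counts as active if its z-score is over 2.8 or under -1.5; controls are left without a call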
The deposit covers about 18,000 reagents; shown is a part drawn at random. About 2,900 of them (16%) were called active. 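Calls are made per well; low scores hint the gene aids the LPS response, high scores that it dampens it.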 Entries without a mark were called inactive. Repeated entries: four replicate wells of each siRNA pool.

TNF reporter robust z-score,Gene
-0.13,LIN37 (GeneID 55957)
-0.01,LIN37 (GeneID 55957)
1.78,LIN37 (GeneID 55957)
-0.17,LIN37 (GeneID 55957)
3.88 (active),RAPGEF1 (GeneID 2889)
3.67 (active),RAPGEF1 (GeneID 2889)
3.04 (active),RAPGEF1 (GeneID 2889)
2.97 (active),RAPGEF1 (GeneID 2889)
0.52,AQP8 (GeneID 343)
1.07,AQP8 (GeneID 343)
0.5,AQP8 (GeneID 343)
0.57,AQP8 (GeneID 343)
-0.11,FCRL4 (GeneID 83417)
-0.46,FCRL4 (GeneID 83417)
-0.93,FCRL4 (GeneID 83417)
-0.61,FCRL4 (GeneID 83417)
3.85 (active),GATAD2A (GeneID 54815)
2.17,GATAD2A (GeneID 54815)
3.34 (active),GATAD2A (GeneID 54815)
1.95,GATAD2A (GeneID 54815)
1.05,PURG (GeneID 29942)
1.36,PURG (GeneID 29942)
1.53,PURG (GeneID 29942)
1.02,PURG (GeneID 29942)
1.01,CYREN (GeneID 78996)
0.87,CYREN (GeneID 78996)
0.64,CYREN (GeneID 78996)
1.56,CYREN (GeneID 78996)
-0.24,NLRP2 (GeneID 55655)
1.14,NLRP2 (GeneID 55655)
-0.92,NLRP2 (GeneID 55655)
0.21,NLRP2 (GeneID 55655)
-0.21,SLC31A1 (GeneID 1317)
-0.62,SLC31A1 (GeneID 1317)
-1.01,SLC31A1 (GeneID 1317)
-0.85,SLC31A1 (GeneID 1317)
-1.19,TMEM59 (GeneID 9528)
-1.15,TMEM59 (GeneID 9528)
-1.21,TMEM59 (GeneID 9528)
-1.52 (active),TMEM59 (GeneID 9528)
-0.32,MTHFSD (GeneID 64779)
1.17,MTHFSD (GeneID 64779)
1.04,MTHFSD (GeneID 64779)
-0.87,MTHFSD (GeneID 64779)
1.49,TSGA10IP (GeneID 254187)
1.41,TSGA10IP (GeneID 254187)
1.32,TSGA10IP (GeneID 254187)
1.65,TSGA10IP (GeneID 254187)
-0.53,CT45A5 (GeneID 441521)
-0.4,CT45A5 (GeneID 441521)
-0.21,CT45A5 (GeneID 441521)
0.59,CT45A5 (GeneID 441521)
0.72,CASP2 (GeneID 835)
-1.28,CASP2 (GeneID 835)
1.13,CASP2 (GeneID 835)
-0.36,CASP2 (GeneID 835)
-0.33,HSF4 (GeneID 3299)
1.92,HSF4 (GeneID 3299)
1.44,HSF4 (GeneID 3299)
1.16,HSF4 (GeneID 3299)
-1.28,PTK6 (GeneID 5753)
-1.17,PTK6 (GeneID 5753)
-1.25,PTK6 (GeneID 5753)
-0.87,PTK6 (GeneID 5753)
1.82,CHEK1 (GeneID 1111)
-0.35,CHEK1 (GeneID 1111)
1.04,CHEK1 (GeneID 1111)
1.23,CHEK1 (GeneID 1111)
-1.13,IFI27L1 (GeneID 122509)
-0.32,IFI27L1 (GeneID 122509)
0.16,IFI27L1 (GeneID 122509)
0.15,IFI27L1 (GeneID 122509)
2.68,SUPT6H (GeneID 6830)
1.9,SUPT6H (GeneID 6830)
1.44,SUPT6H (GeneID 6830)
3.53 (active),SUPT6H (GeneID 6830)
